# Experimental data from PubChem BioAssay AID445 (National Center for Advancing Translational Sciences (NCATS), 2006).
# This is one part of the list. These are further read-outs of the screen, such as a control signal, another cell line or another target. No call is given for them. The list favours compounds with an active or inconclusive main result. Potencies come from curve fits of mixed quality, noted in brackets.
# Assay: IkB Signaling
# Conditions: ABC-DLBCL IkBa-CBG/CBR dual luciferase ratio (green luciferase fused to IkBa over red control in OCI-Ly3 lymphoma cells), 4 h; measured here: control luc red channel unless noted
# Summary of the method: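 Curves were fitted separately to fusion (green), unfused (red) and ratio luminescence, then classed by r2, magnitude and activity. Cells: OCI-Ly3, 4 h compound plus doxycycline at 37C; 10 uM MG-132 defined full response.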
row,Structure (SMILES),AC50
1,COc1ccc(Cl)cc1NC(=O)c1cc(C)nn1-c1ccccc1,"5.01 µM [falling, partial curve]"
2,O=C(Nc1ccncc1)c1cc2ccccc2o1,"12.6 µM [falling, partial curve]"
3,CCOc1cccc(C=Nc2cc(C)cc(C)c2O)c1O,"15.8 µM [falling, partial curve]"
4,O=C(Cn1ncc2c(Cl)cccc21)NCc1cccc(Br)c1,"0.158 µM [rising, partial curve]"
5,Cc1ccc(N2CC(NC(=O)C(=O)c3c[nH]c4ccccc34)CC2=O)cc1 (stereo not drawn),"3.98 µM [falling, single point]"
6,COc1ccc(OC)c(-c2cc(C(=O)N3CCc4ccccc4C3)no2)c1,"20 µM [falling, partial curve]"
7,CC(C)CCNC(=O)c1ccc2c(c1)N(Cc1ccccc1F)C(=O)c1ccccc1S2=O (stereo not drawn),"39.8 µM [falling, single point]"
8,O=C(CSc1ncn[nH]1)Nc1nnc(-c2ccccc2)s1,"3.16 µM [falling, full curve]"
9,Cc1cccn2c(=O)c3cc(C(=O)N(Cc4ccccc4)C(C)C)sc3nc12,"25.1 µM [falling, partial curve]"
10,COc1ccc2c(c1)CCc1cc(C(=O)N3CCN(c4ccc(N5CCOCC5)nn4)CC3)sc1-2,"2.51 µM [falling, full curve]"
11,Cc1cc(Cl)ccc1NC(=O)C1CCN(c2nnc(-n3c(C)ccc3C)s2)CC1,"10 µM [falling, partial curve]"
12,COc1ccc(-c2cc(C(F)(F)F)n3nc(C(=O)NCC45CC6CC(CC(C6)C4)C5)cc3n2)cc1OC,"0.00316 µM [falling, full curve, poor fit]"
13,CCc1ccccc1NC(=O)CSc1nc2c(oc3ccccc32)c(=O)n1-c1ccccc1F,"0.0316 µM [falling, full curve, poor fit]"
14,Cc1ccc2ccc3cc(C(=O)N4CCN(c5ccccc5)CC4)nc3c2[nH]1,"12.6 µM [falling, partial curve]"
15,Cc1ccc(NC(=O)C(=O)NCC(c2cccnc2)N2CCN(Cc3ccccc3)CC2)cc1 (stereo not drawn),"31.6 µM [falling, single point]"
16,CCOc1ccc(C2C(C(=O)Nc3ccc(Cl)cc3)=C(C)Nc3nc(C(F)(F)F)nn32)cc1 (stereo not drawn),"31.6 µM [falling, single point]"
17,Fc1ccccc1-n1ncc2c1ncn1nc(Cc3ccccc3)nc21,"0.794 µM [rising, full curve]"
18,Cc1ccccc1NC(=O)CN(c1ccc(Cl)cc1Cl)S(=O)(=O)c1ccccc1,"12.6 µM [falling, partial curve]"

# Looked up one by one from the list above, two records:
row,Structure (SMILES),AC50
2,O=C(Nc1ccncc1)c1cc2ccccc2o1,"12.6 µM [falling, partial curve]"
1,COc1ccc(Cl)cc1NC(=O)c1cc(C)nn1-c1ccccc1,"5.01 µM [falling, partial curve]"
